{"sequences": {"note": "By UniProt entry, the sequences of proteins in these tests, tags left out. Where a name states a change or a piece, a line headed by the entry shows the natural chain unless it says otherwise.", "UniProt Q9H7M9": "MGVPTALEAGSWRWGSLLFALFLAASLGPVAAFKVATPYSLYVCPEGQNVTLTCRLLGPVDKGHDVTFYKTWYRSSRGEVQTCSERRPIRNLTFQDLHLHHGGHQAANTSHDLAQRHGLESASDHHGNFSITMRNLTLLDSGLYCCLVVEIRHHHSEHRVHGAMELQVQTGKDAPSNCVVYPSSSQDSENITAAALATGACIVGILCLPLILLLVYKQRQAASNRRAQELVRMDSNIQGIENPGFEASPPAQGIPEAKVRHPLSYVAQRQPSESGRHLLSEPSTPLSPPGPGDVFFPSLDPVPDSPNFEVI"}, "source": "patent US20220281973A1", "molecular_target": "T1, purified LRIG1 (Example 6) (Homo sapiens (Human)) (UniProt Q96JA1)", "T1 sequence": "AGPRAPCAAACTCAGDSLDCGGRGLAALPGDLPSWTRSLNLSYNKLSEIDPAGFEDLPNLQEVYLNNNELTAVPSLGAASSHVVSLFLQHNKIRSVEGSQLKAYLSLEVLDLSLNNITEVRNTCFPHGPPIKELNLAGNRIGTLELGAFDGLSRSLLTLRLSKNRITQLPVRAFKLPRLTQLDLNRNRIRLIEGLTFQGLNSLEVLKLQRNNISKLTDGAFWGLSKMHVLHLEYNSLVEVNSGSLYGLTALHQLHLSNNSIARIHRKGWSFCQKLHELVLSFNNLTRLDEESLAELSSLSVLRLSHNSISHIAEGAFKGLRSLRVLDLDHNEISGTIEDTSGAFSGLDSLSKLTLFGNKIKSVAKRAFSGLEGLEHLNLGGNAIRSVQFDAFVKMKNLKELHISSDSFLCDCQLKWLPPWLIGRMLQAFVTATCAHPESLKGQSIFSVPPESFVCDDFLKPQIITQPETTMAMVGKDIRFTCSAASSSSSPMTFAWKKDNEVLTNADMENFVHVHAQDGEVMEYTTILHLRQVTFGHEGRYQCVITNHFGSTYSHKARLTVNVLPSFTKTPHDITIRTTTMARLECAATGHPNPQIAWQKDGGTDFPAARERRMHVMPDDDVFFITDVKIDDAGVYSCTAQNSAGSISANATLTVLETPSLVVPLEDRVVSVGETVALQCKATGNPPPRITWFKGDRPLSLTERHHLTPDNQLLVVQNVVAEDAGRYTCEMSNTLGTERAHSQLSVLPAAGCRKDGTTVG", "test": "chemical cross-linking (K200 kit) and High-Mass MALDI MS of 3.2 uM LRIG1 mixed with 0.6 uM VISTA", "note": "No constants are given. Whether binding was seen depends on the method and setting. Some entries that bind do so weakly or less than the wild type.", "data": [{"substance": "purified VISTA (Example 6) (from UniProt Q9H7M9 33-194) (receptor)", "values": [{"measurement": "binding", "result": "binds"}]}]}
